{"source": "patent US5502164A", "about": "(priority 1992, dated 1996)", "assay": "solid-phase peptide synthesis", "settings": "whole synthesis, ammonium salt"}
{"substance": "Hpa(SO3 H)-Met-Gly-Trp-Met-Asp-MePhe-NH2 (SEQ ID NO 3)", "values": [{"measurement": "difficulty met", "result": "As a result of racemization during the synthesis of Example 9"}]}
